{
  "source": "patent US20220409560A1",
  "about": "“Pharmaceutical Compositions, Formulations And Methods For The Treatment Of Retinoblastoma” (Oxular Limited, priority 2019, published 2022)",
  "key": {"Y79 cell line": {"tested_on": "Y79 cell line", "experiment": "Retinoblastoma cell proliferation inhibition assay (Cell Titer Glo, 72 hour incubation)", "type": "cell-based", "settings": "Homo sapiens"}, "[1]": {"tested_on": "WERI cell line (WERI-Rb1)", "experiment": "Retinoblastoma cell proliferation inhibition assay (Cell Titer Glo, 72 hour incubation)", "type": "cell-based", "settings": "Homo sapiens"}},
  "data": [
    {"smiles": "O=C(CCCCCCC(=O)Nc1ccccc1)NO", "note": "[Vorinostat]", "values": [
      {"measurement": "EC50", "setting": "Y79 cell line", "value": 2840, "unit": "nM"},
      {"measurement": "EC50", "setting": "[1]", "value": 1370, "unit": "nM"}
    ]}
  ]
}
